# Reference: the supplement of paper PMC4604168 (melanoma cell lines)
# This is one part of the list. Repeats are few or missing, and single values can be far off.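 Cells were imaged in 1,536-well plates, and nuclei stained with an antibody against cleaved PARP were counted against all DNA-stained nuclei to give the apoptosis fraction. Screening doses were chosen to leave most cells alive, and resting and induced cleaved-PARP levels differ strongly between cell lines.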
# Tests used:
# Experiment in all cases: cleaved PARP positive nuclei fraction relative to DMSO control; melanoma cells; higher = more apoptosis
# Settings in all cases: library dose: low library concentration; 72 h
# [1] = system: 501Mel
# [2] = system: A101D
# [3] = system: A2058
# [4] = system: A375
# [5] = system: C32
# [6] = system: CBRC008 (line from a melanoma biopsy)
# [7] = system: CBRC013 (line from a melanoma biopsy)
# [8] = system: CBRC014 (line from a melanoma biopsy)
# [9] = system: CBRC016 (line from a melanoma biopsy)
# [10] = system: CBRC017 (line from a melanoma biopsy)
# [11] = system: COLO792
# [12] = system: COLO800
# [13] = system: COLO829
# [14] = system: G361
# [15] = system: IPC-298
# [16] = system: IST-MEL1
# [17] = system: LB2518-MEL
# [18] = system: LOXIMVI
# [19] = system: MEL-HO
SMILES,cleaved PARP positive nuclei fraction [1] [%],cleaved PARP positive nuclei fraction [2] [%],cleaved PARP positive nuclei fraction [3] [%],cleaved PARP positive nuclei fraction [4] [%],cleaved PARP positive nuclei fraction [5] [%],cleaved PARP positive nuclei fraction [6] [%],cleaved PARP positive nuclei fraction [7] [%],cleaved PARP positive nuclei fraction [8] [%],cleaved PARP positive nuclei fraction [9] [%],cleaved PARP positive nuclei fraction [10] [%],cleaved PARP positive nuclei fraction [11] [%],cleaved PARP positive nuclei fraction [12] [%],cleaved PARP positive nuclei fraction [13] [%],cleaved PARP positive nuclei fraction [14] [%],cleaved PARP positive nuclei fraction [15] [%],cleaved PARP positive nuclei fraction [16] [%],cleaved PARP positive nuclei fraction [17] [%],cleaved PARP positive nuclei fraction [18] [%],cleaved PARP positive nuclei fraction [19] [%]
"C[C@]1(O)C[C@@H](c2nc(-c3ccc4ccc(-c5ccccc5)nc4c3)c3c(N)nccn32)C1 + CN(NC(=O)CC(=O)NN(C)C(=S)c1ccccc1)C(=S)c1ccccc1 [STA4783] (first compound 0.4 µM, partner dose 0.006 µM)",648,107,92.8,14900,272,1670,153,514,72,342,82.8,269,180,221,48.8,372,182,120,116
"CC(=O)O[C@@]12CO[C@@H]1C[C@H](O)[C@@]1(C)C(=O)[C@H](O)C3=C(C)[C@@H](OC(=O)[C@H](O)[C@@H](NC(=O)OC(C)(C)C)c4ccccc4)C[C@@](O)([C@@H](OC(=O)c4ccccc4)[C@H]21)C3(C)C [Docetaxel] + O=C(O)c1ccc(-c2c[nH]c3ncc(-c4ccccc4)cc23)cc1C1CCCC1 [GSK650394] (first compound 0.0001 µM, partner dose 0.16 µM)",112,83.3,4750,5490,221,595,128,121,256,213,541,500,375,689,132,292,301,93.4,135
"CC(=O)O[C@@]12CO[C@@H]1C[C@H](O)[C@@]1(C)C(=O)[C@H](O)C3=C(C)[C@@H](OC(=O)[C@H](O)[C@@H](NC(=O)OC(C)(C)C)c4ccccc4)C[C@@](O)([C@@H](OC(=O)c4ccccc4)[C@H]21)C3(C)C [Docetaxel] + COc1cc(Nc2ncc(F)c(Nc3ccc4c(n3)NC(=O)C(C)(C)O4)n2)cc(OC)c1OC [Tamatinib] (first compound 0.0001 µM, partner dose 0.4 µM)",395,124,14600,7040,303,1150,98.7,181,636,218,2190,202,316,524,283,402,218,223,150
"CN(c1ncccc1CNc1nc(Nc2ccc3c(c2)CC(=O)N3)ncc1C(F)(F)F)S(C)(=O)=O + Cn1cncc1[C@@](N)(c1ccc(Cl)cc1)c1ccc2c(c1)c(-c1cccc(Cl)c1)cc(=O)n2C [tipifarnib] (first compound 0.08 µM, partner dose 0.01 µM)",91.8,103,157,137,160,234,233,317,189,67,151,65.3,123,36.2,51.8,221,88.6,115,72.4
"CCN(CC)CCNC(=O)c1c(C)[nH]c(/C=C2\C(=O)Nc3ccc(F)cc32)c1C [sunitinib] + C[C@@H]1CCN(C(=O)CC#N)C[C@@H]1N(C)c1ncnc2[nH]ccc12 [CP690550] (first compound 0.4 µM, partner dose 1 µM)",85,71.3,258,290,151,63.2,290,70.8,69.6,84.8,19.9,37.6,161,120,168,256,192,27,233
"CN(c1ncccc1CNc1nc(Nc2ccc3c(c2)CC(=O)N3)ncc1C(F)(F)F)S(C)(=O)=O + CN(NC(=O)CC(=O)NN(C)C(=S)c1ccccc1)C(=S)c1ccccc1 [STA4783] (first compound 0.08 µM, partner dose 0.006 µM)",149,157,427,597,418,667,132,569,406,126,160,136,128,66.7,133,55.7,96.7,67.9,71.9
"CCCCCCCCc1ccc(CCC(N)(CO)CO)cc1 [fingolimod] + C[C@@H]1CCN(C(=O)CC#N)C[C@@H]1N(C)c1ncnc2[nH]ccc12 [CP690550] (first compound 2 µM, partner dose 1 µM)",211,147,71.2,83.4,133,87.8,158,95.1,102,119,52.1,125,65.3,113,42.6,103,85,131,135
"C[C@@H](N)c1ccc(C(=O)Nc2ccnc3[nH]ccc23)cc1 + O=C(Nc1cccc(Cl)c1)Nc1ncc(CCNc2ncnc3ccsc23)s1 [SNS314] (first compound 0.4 µM, partner dose 0.0008 µM)",294,47.5,164,171,266,105,99.7,125,98.1,122,141,71.8,143,131,94.6,51,175,81.9,284
"CN(c1ncccc1CNc1nc(Nc2ccc3c(c2)CC(=O)N3)ncc1C(F)(F)F)S(C)(=O)=O + OCCn1cc(-c2cnc3nnn(Cc4ccc5ncccc5c4)c3n2)cn1 [PF04217903] (first compound 0.08 µM, partner dose 1 µM)",145,91.6,78.1,180,338,165,138,98.8,114,95.3,100,74,84.9,166,185,49.8,107,279,72.7
"Cn1sc(=O)n(Cc2ccccc2)c1=O + CC(C)(C)c1cnc(CSc2cnc(NC(=O)C3CCNCC3)s2)o1 [SNS-032] (first compound 0.4 µM, partner dose 0.01 µM)",106,160,49.5,116,107,81.5,150,89.5,123,133,164,143,92.8,174,59.9,52.3,105,54.9,70.2
"CS(=O)(=O)c1ccc(C(=O)Nc2ccc(Cl)c(-c3ccccn3)c2)c(Cl)c1 [vismodegib] + O=C(O)c1ccc(-c2c[nH]c3ncc(-c4ccccc4)cc23)cc1C1CCCC1 [GSK650394] (first compound 1 µM, partner dose 0.16 µM)",105,145,139,193,66.1,264,96.4,121,212,221,93.1,104,36.6,69.3,23,138,75.8,355,133
"COc1ccc(C2=N[C@@H](c3ccc(Cl)cc3)[C@@H](c3ccc(Cl)cc3)N2C(=O)N2CCNC(=O)C2)c(OC(C)C)c1 [Nutlin-3] + CC1(C)NC(=O)N(c2ccc([N+](=O)[O-])c(C(F)(F)F)c2)C1=O [nilutamide] (first compound 0.1 µM, partner dose 1 µM)",90.7,102,130,39,123,270,109,82.7,28.9,101,103,32.1,78,111,91.5,101,220,34.8,35.9
"C[C@@H](N)c1ccc(C(=O)Nc2ccnc3[nH]ccc23)cc1 + C[C@@H]1CCN(C(=O)CC#N)C[C@@H]1N(C)c1ncnc2[nH]ccc12 [CP690550] (first compound 0.4 µM, partner dose 1 µM)",153,166,98.2,138,82.3,60,124,82.8,116,167,333,37.7,128,59.7,42.9,44.2,74,43.1,119
"CC(=O)O[C@@]12CO[C@@H]1C[C@H](O)[C@@]1(C)C(=O)[C@H](O)C3=C(C)[C@@H](OC(=O)[C@H](O)[C@@H](NC(=O)OC(C)(C)C)c4ccccc4)C[C@@](O)([C@@H](OC(=O)c4ccccc4)[C@H]21)C3(C)C [Docetaxel] + COc1cc2c(Oc3ccc4[nH]c(C)cc4c3F)ncnc2cc1OCCCN1CCCC1 [cediranib] (first compound 0.0001 µM, partner dose 0.4 µM)",346,125,7360,15400,503,902,121,98.2,368,116,735,128,175,805,31.9,133,301,253,112
"Cn1sc(=O)n(Cc2ccccc2)c1=O + NC(=O)Nc1cc(-c2cccc(F)c2)sc1C(=O)N[C@H]1CCCNC1 [AZD7762] (first compound 0.4 µM, partner dose 0.02 µM)",73,136,56.9,356,195,125,136,105,69.7,168,231,103,113,113,254,68.9,64.1,94.3,82.9
"CCN(CC)CCNC(=O)c1c(C)[nH]c(/C=C2\C(=O)Nc3ccc(F)cc32)c1C [sunitinib] + C=CCn1c(=O)c2cnc(Nc3ccc(N4CCN(C)CC4)cc3)nc2n1-c1cccc(C(C)(C)O)n1 [MK1775] (first compound 0.4 µM, partner dose 0.02 µM)",133,59.5,53.4,383,75.8,75.8,164,90.9,29.1,107,131,66,158,82.3,446,51.8,204,131,39.2

# An excerpt of these results, with bars between the fields.
SMILES | cleaved PARP positive nuclei fraction [1] [%] | cleaved PARP positive nuclei fraction [2] [%] | cleaved PARP positive nuclei fraction [3] [%] | cleaved PARP positive nuclei fraction [4] [%] | cleaved PARP positive nuclei fraction [5] [%] | cleaved PARP positive nuclei fraction [6] [%] | cleaved PARP positive nuclei fraction [7] [%] | cleaved PARP positive nuclei fraction [8] [%] | cleaved PARP positive nuclei fraction [9] [%] | cleaved PARP positive nuclei fraction [10] [%] | cleaved PARP positive nuclei fraction [11] [%] | cleaved PARP positive nuclei fraction [12] [%] | cleaved PARP positive nuclei fraction [13] [%] | cleaved PARP positive nuclei fraction [14] [%] | cleaved PARP positive nuclei fraction [15] [%] | cleaved PARP positive nuclei fraction [16] [%] | cleaved PARP positive nuclei fraction [17] [%] | cleaved PARP positive nuclei fraction [18] [%] | cleaved PARP positive nuclei fraction [19] [%]
Cn1sc(=O)n(Cc2ccccc2)c1=O + CC(C)(C)c1cnc(CSc2cnc(NC(=O)C3CCNCC3)s2)o1 [SNS-032] (first compound 0.4 µM, partner dose 0.01 µM) | 106 | 160 | 49.5 | 116 | 107 | 81.5 | 150 | 89.5 | 123 | 133 | 164 | 143 | 92.8 | 174 | 59.9 | 52.3 | 105 | 54.9 | 70.2
CC(=O)O[C@@]12CO[C@@H]1C[C@H](O)[C@@]1(C)C(=O)[C@H](O)C3=C(C)[C@@H](OC(=O)[C@H](O)[C@@H](NC(=O)OC(C)(C)C)c4ccccc4)C[C@@](O)([C@@H](OC(=O)c4ccccc4)[C@H]21)C3(C)C [Docetaxel] + COc1cc2c(Oc3ccc4[nH]c(C)cc4c3F)ncnc2cc1OCCCN1CCCC1 [cediranib] (first compound 0.0001 µM, partner dose 0.4 µM) | 346 | 125 | 7360 | 15400 | 503 | 902 | 121 | 98.2 | 368 | 116 | 735 | 128 | 175 | 805 | 31.9 | 133 | 301 | 253 | 112
